From paper PMC4045235
These are yes or no findings as the source states them, for the method shown. In cells and extracts the contact can be indirect. Here binding means that the protein was enriched with, or labelled near, the bait; the list need not be complete.

Amino acid sequences for entries named in this document (tags omitted).
UniProt Q14999: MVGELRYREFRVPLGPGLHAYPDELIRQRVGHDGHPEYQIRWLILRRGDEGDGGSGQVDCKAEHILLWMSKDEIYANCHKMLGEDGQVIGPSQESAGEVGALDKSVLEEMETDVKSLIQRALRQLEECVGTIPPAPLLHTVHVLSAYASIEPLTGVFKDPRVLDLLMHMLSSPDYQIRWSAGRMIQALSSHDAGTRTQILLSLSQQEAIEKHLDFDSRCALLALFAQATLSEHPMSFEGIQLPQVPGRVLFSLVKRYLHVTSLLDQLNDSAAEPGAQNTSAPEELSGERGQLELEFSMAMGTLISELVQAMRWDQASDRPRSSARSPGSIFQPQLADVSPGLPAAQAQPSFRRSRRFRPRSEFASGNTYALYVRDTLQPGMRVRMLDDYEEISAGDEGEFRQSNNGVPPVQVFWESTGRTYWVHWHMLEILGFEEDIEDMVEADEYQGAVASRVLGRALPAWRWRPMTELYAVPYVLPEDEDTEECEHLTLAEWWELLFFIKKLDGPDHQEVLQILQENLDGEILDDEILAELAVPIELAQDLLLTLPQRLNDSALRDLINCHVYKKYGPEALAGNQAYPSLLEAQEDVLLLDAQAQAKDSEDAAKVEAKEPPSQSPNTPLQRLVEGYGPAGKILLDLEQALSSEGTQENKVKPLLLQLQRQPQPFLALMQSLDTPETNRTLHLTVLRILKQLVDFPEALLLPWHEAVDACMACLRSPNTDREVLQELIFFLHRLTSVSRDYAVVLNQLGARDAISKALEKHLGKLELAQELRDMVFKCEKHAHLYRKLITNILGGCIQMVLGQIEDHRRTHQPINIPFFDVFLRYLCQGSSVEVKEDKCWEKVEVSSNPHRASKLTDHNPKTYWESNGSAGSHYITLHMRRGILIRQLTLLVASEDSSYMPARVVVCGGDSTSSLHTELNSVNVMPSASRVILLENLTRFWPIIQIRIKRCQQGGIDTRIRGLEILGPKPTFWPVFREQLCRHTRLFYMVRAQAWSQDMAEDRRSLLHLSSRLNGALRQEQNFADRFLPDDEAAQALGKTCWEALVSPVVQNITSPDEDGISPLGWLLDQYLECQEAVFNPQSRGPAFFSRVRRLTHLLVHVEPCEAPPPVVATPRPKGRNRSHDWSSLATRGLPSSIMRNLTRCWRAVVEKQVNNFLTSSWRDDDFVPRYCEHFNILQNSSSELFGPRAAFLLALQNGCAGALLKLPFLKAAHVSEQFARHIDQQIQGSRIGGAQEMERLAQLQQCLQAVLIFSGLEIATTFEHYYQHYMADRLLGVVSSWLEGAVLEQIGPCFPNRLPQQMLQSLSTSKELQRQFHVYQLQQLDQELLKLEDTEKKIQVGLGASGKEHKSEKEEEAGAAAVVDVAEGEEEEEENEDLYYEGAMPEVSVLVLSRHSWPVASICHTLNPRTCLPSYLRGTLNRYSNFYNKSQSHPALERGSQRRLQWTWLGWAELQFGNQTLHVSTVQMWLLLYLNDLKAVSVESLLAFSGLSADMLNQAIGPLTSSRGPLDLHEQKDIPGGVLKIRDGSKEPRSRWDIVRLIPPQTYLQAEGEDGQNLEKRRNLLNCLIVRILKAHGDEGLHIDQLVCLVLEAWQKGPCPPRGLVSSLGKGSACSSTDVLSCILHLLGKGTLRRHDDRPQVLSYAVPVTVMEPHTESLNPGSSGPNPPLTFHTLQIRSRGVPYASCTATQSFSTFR
UniProt O75147: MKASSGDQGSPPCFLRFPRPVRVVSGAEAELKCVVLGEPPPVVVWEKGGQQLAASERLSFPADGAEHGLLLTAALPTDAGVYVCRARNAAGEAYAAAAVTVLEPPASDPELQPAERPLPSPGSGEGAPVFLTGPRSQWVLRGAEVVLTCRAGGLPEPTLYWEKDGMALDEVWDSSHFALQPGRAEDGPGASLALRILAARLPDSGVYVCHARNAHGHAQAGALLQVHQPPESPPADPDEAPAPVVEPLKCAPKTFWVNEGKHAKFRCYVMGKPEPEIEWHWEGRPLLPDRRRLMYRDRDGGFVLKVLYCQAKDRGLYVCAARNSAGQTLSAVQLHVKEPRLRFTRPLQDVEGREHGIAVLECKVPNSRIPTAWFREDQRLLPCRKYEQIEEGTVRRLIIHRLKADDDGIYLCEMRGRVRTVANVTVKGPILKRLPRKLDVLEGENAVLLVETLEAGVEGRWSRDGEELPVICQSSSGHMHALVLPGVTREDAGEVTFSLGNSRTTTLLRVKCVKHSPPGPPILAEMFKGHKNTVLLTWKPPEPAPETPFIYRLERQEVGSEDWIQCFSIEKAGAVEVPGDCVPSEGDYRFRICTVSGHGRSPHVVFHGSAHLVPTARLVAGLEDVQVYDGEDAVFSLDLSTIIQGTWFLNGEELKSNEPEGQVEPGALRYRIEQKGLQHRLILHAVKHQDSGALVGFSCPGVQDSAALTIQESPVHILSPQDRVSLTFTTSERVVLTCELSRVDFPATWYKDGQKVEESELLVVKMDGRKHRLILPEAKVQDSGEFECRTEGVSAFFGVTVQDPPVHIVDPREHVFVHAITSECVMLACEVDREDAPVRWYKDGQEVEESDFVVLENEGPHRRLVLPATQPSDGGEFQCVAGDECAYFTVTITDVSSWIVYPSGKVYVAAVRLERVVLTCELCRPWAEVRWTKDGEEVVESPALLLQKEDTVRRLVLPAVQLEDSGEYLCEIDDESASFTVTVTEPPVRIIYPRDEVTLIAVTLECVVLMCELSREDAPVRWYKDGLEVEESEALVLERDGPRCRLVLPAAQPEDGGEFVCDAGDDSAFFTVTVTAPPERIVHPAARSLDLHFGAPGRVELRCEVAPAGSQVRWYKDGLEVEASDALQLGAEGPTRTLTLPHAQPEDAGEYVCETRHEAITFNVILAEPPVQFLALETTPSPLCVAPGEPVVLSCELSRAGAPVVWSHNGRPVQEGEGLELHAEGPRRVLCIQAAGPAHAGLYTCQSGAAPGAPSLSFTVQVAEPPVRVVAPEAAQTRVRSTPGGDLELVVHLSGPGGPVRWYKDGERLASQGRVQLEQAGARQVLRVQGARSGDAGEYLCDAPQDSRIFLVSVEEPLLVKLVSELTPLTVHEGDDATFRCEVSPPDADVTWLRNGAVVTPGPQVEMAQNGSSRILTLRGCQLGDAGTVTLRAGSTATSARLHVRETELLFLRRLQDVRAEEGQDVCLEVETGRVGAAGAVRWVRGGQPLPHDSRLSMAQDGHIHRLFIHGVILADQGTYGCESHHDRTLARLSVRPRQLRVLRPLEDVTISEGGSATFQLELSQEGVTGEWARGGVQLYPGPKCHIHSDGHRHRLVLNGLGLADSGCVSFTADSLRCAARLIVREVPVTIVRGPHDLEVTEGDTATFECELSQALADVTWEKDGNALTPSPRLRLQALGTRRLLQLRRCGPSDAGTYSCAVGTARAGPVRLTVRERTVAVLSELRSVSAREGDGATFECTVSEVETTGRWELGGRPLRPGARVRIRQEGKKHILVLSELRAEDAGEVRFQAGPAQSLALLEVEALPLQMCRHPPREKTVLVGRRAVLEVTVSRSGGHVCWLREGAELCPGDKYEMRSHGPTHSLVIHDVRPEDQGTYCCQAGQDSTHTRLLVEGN

B1: NUP93 (protein, UniProt Q8N1F7 1-819)
chain: MDTEGFGELLQQAEQLAAETEGISELPHVERNLQEIQQAGERLRSRTLTRTSQETADVKASVLLGSRGLDISHISQRLESLSAATTFEPLEPVKDTDIQGFLKNEKDNALLSAIEESRKRTFGMAEEYHRESMLVEWEQVKQRILHTLLASGEDALDFTQESEPSYISDVGPPGRSSLDNIEMAYARQIYIYNEKIVNGHLQPNLVDLCASVAELDDKSISDMWTMVKQMTDVLLTPATDALKNRSSVEVRMEFVRQALAYLEQSYKNYTLVTVFGNLHQAQLGGVPGTYQLVRSFLNIKLPAPLPGLQDGEVEGHPVWALIYYCMRCGDLLAASQVVNRAQHQLGEFKTWFQEYMNSKDRRLSPATENKLRLHYRRALRNNTDPYKRAVYCIIGRCDVTDNQSEVADKTEDYLWLKLNQVCFDDDGTSSPQDRLTLSQFQKQLLEDYGESHFTVNQQPFLYFQVLFLTAQFEAAVAFLFRMERLRCHAVHVALVLFELKLLLKSSGQSAQLLSHEPGDPPCLRRLNFVRLLMLYTRKFESTDPREALQYFYFLRDEKDSQGENMFLRCVSELVIESREFDMILGKLENDGSRKPGVIDKFTSDTKPIINKVASVAENKGLFEEAAKLYDLAKNADKVLELMNKLLSPVVPQISAPQSNKERLKNMALSIAERYRAQGISANKFVDSTFYLLLDLITFFDEYHSGHIDRAFDIIERLKLVPLNQESVEERVAAFRNFSDEIRHNLSEVLLATMNILFTQFKRLKGTSPSSSSRPQRVIEDRDSQLRSQARTLITFAGMIPYRTSGDTNARLVQMEVLMN
B2: PA2G4 (protein, UniProt Q9UQ80 1-394)
chain: MSGEDEQQEQTIAEDLVVTKYKMGGDIANRVLRSLVEASSSGVSVLSLCEKGDAMIMEETGKIFKKEKEMKKGIAFPTSISVNNCVCHFSPLKSDQDYILKEGDLVKIDLGVHVDGFIANVAHTFVVDVAQGTQVTGRKADVIKAAHLCAEAALRLVKPGNQNTQVTEAWNKVAHSFNCTPIEGMLSHQLKQHVIDGEKTIIQNPTDQQKKDHEKAEFEVHEVYAVDVLVSSGEGKAKDAGQRTTIYKRDPSKQYGLKMKTSRAFFSEVERRFDAMPFTLRAFEDEKKARMGVVECAKHELLQPFNVLYEKEGEFVAQFKFTVLLMPNGPMRITSGPFEPDLYKSEMEVQDAELKALLQSSASRKTQKKKKKKASKTAENATSGETLEENEAGD
B3: HNRNPL (protein, UniProt P14866 1-589)
chain: MSRRLLPRAEKRRRRLEQRQQPDEQRRRSGAMVKMAAAGGGGGGGRYYGGGSEGGRAPKRLKTDNAGDQHGGGGGGGGGAGAAGGGGGGENYDDPHKTPASPVVHIRGLIDGVVEADLVEALQEFGPISYVVVMPKKRQALVEFEDVLGACNAVNYAADNQIYIAGHPAFVNYSTSQKISRPGDSDDSRSVNSVLLFTILNPIYSITTDVLYTICNPCGPVQRIVIFRKNGVQAMVEFDSVQSAQRAKASLNGADIYSGCCTLKIEYAKPTRLNVFKNDQDTWDYTNPNLSGQGDPGSNPNKRQRQPPLLGDHPAEYGGPHGGYHSHYHDEGYGPPPPHYEGRRMGPPVGGHRRGPSRYGPQYGHPPPPPPPPEYGPHADSPVLMVYGLDQSKMNCDRVFNVFCLYGNVEKVKFMKSKPGAAMVEMADGYAVDRAITHLNNNFMFGQKLNVCVSKQPAIMPGQSYGLEDGSCSYKDFSESRNNRFSTPEQAAKNRIQHPSNVLHFFNAPLEVTEENFFEICDELGVKRPSSVKVFSGKSERSSSGLLEWESKSDALETLGFLNHYQMKNPNGPYPYTLKLCFSTAQHAS
B4: HNRNPR (protein, UniProt O43390 1-633)
chain: MANQVNGNAVQLKEEEEPMDTSSVTHTEHYKTLIEAGLPQKVAERLDEIFQTGLVAYVDLDERAIDALREFNEEGALSVLQQFKESDLSHVQNKSAFLCGVMKTYRQREKQGSKVQESTKGPDEAKIKALLERTGYTLDVTTGQRKYGGPPPDSVYSGVQPGIGTEVFVGKIPRDLYEDELVPLFEKAGPIWDLRLMMDPLSGQNRGYAFITFCGKEAAQEAVKLCDSYEIRPGKHLGVCISVANNRLFVGSIPKNKTKENILEEFSKVTEGLVDVILYHQPDDKKKNRGFCFLEYEDHKSAAQARRRLMSGKVKVWGNVVTVEWADPVEEPDPEVMAKVKVLFVRNLATTVTEEILEKSFSEFGKLERVKKLKDYAFVHFEDRGAAVKAMDEMNGKEIEGEEIEIVLAKPPDKKRKERQAARQASRSTAYEDYYYHPPPRMPPPIRGRGRGGGRGGYGYPPDYYGYEDYYDDYYGYDYHDYRGGYEDPYYGYDDGYAVRGRGGGRGGRGAPPPPRGRGAPPPRGRAGYSQRGAPLGPPRGSRGGRGGPAQQQRGRGSRGSRGNRGGNVGGKRKADGYNQPDSKRRQTNNQQNWGSQPIAQQPLQQGGDYSGNYGYNNDNQEFYQDTYGQQWK
B5: SF1 (protein, UniProt Q15637 1-639)
chain: MATGANATPLDFPSKKRKRSRWNQDTMEQKTVIPGMPTVIPPGLTREQERAYIVQLQIEDLTRKLRTGDLGIPPNPEDRSPSPEPIYNSEGKRLNTREFRTRKKLEEERHNLITEMVALNPDFKPPADYKPPATRVSDKVMIPQDEYPEINFVGLLIGPRGNTLKNIEKECNAKIMIRGKGSVKEGKVGRKDGQMLPGEDEPLHALVTANTMENVKKAVEQIRNILKQGIETPEDQNDLRKMQLRELARLNGTLREDDNRILRPWQSSETRSITNTTVCTKCGGAGHIASDCKFQRPGDPQSAQDKARMDKEYLSLMAELGEAPVPASVGSTSGPATTPLASAPRPAAPANNPPPPSLMSTTQSRPPWMNSGPSESRPYHGMHGGGPGGPGGGPHSFPHPLPSLTGGHGGHPMQHNPNGPPPPWMQPPPPPMNQGPHPPGHHGPPPMDQYLGSTPVGSGVYRLHQGKGMMPPPPMGMMPPPPPPPSGQPPPPPSGPLPPWQQQQQQPPPPPPPSSSMASSTPLPWQQNTTTTTTSAGTGSIPPWQQQQAAAAASPGAPQMQGNPTMVPLPPGVQPPLPPGAPPPPPPPPPGSAGMMYAPPPPPPPPMDPSNFVTMMGMGVAGMPPFGMPPAPPPPPPQN

The binders below were run against T1, CCDC8 (UniProt Q9H0W5) (assay: affinity purification with mass spectrometry; lysates of HEK293 cells transfected with CUL7, V5-OBSL1 or CCDC8, 24 h post-transfection; IP with CUL7, V5 or CCDC8 antibody on protein G Dynabeads; SDS-PAGE, GeLC-MS/MS; proteins found in no antibody control IPs removed; only proteins present in all three IPs kept).
T1 sequence: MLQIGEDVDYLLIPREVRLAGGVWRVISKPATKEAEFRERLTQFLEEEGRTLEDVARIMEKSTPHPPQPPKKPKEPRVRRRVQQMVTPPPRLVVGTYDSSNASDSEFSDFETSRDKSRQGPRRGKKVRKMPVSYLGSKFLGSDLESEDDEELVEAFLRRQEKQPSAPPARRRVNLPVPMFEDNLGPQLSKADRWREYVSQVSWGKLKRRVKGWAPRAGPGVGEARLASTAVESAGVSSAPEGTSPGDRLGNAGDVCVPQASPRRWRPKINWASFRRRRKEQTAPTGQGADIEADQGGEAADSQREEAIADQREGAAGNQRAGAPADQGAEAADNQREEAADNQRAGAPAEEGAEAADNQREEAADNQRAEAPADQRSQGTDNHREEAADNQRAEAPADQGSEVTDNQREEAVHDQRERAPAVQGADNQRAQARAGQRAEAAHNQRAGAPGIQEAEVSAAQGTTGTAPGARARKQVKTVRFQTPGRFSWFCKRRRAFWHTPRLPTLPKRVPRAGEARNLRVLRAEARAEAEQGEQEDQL

binding, binds:
B1
B2
B3
B4
B5

Each binder was assayed against CUL7 (UniProt Q14999) in the same assay as above.

binding, binds:
B1
B2
B3
B4
B5

These binders were tested against V5-OBSL1 (UniProt O75147) in the same assay as above.

binding, binds:
B1
B2
B3
B4
B5
